In patent publication US7417156B2, “Orally active, antimalarial, anticancer, artemisinin-derived trioxane dimers” (Johns Hopkins University, priority 2002, dated 2008):
For some assays here: At least one compound was matched to its structure with a doubt left. Some entries share one result that the patent states for a list of compounds.

What was measured:
[1] = tested on: 60 cell line panel; assay type: cell-based
[2] = tested on: DU-145; assay: NCI 60 cell line panel screen (SRB); assay type: cell-based, human; conditions: DU-145 (Prostate Cancer); LC50: PG=−50

Structure (SMILES)	potency relative to artemisinin, drug concentrations causing 50% growth inhibition [1]	Log10LC50 [2]
C[C@@H]1CC[C@H]2[C@@H](C)C(CC(O)(COC(=O)CCC(=O)O)CC3OC4O[C@]5(C)CC[C@H]6[C@H](C)CC[C@@H]([C@H]3C)C46OO5)OC3O[C@]4(C)CCC1C32OO4 (some centres unmarked) [Compound 9, tertiary alcohol primary succinate ester]	at least 100 times	–
CC1CCC2C(C)C(CC(COC(=O)c3cc[n+]([O-])cc3)CC3OC4OC5(C)CCC6C(C)CCC(C3C)C46OO5)OC3OC4(C)CCC1C32OO4 (centres unmarked) [Compound 13, bis-trioxane primary alcohol isonicotinate N-oxide]	–	−4.6- log10M
